Data as given in PubChem BioAssay AID1053208 (Peter MacCallum Cancer Centre, 2014).
The deposit covers about 17,000 reagents; below is an unselected part. 788 of all reagents (4.7%) count as active. 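Calls rest on z-score classes alone; an extra cut-off of viability at most 70% of control was not applied to them.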 Further read-outs or replicates are left out here.

- Test: 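Genes whose silencing cuts survival of bone tumour cells only with doxorubicin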 (primary screen)
- Cells: mouse osteosarcoma cells, early-passage culture from an engineered mouse model of fibroblastic bone tumour
- Knock-down reagent: siRNA pool against mouse genes, 40 nM
- Duration: about 120 h (48 h before drug, then 72 h with drug)
- Treatment: doxorubicin 100 nM for 72 h, roughly 30-40% inhibitory dose
- Measured: 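Viability read as ATP luminescence after 72 h of 100 nM doxorubicin or none, duplicate wells averaged, scaled to non-targeting siRNA, then expressed as robust z-scores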
- Direction: viability z-score with doxorubicin: higher = more viable cells under doxorubicin; viability z-score without drug: higher = more viable cells with knock-down alone
- Rule for the call: 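Called active if knock-down leaves viability unchanged without drug (z within -2 to 2) but lowers it with doxorubicin (z at or under -2)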

With B3gnt7 (GeneID 227327) [SID152260232], how do the results read?
combined z-score class: no change with or without drug; viability z-score with doxorubicin: 1.12; viability z-score without drug: 1.35; outcome: inactive

For Mff (GeneID 75734) [SID152297413], how do the results read?
combined z-score class: low cell count without drug only; viability z-score with doxorubicin: 0; viability z-score without drug: -2.02; outcome: inactive

How did the screen score Tubd1 (GeneID 56427) [SID152269910]?
combined z-score class: no change with or without drug; viability z-score with doxorubicin: 1.8; viability z-score without drug: 0.51; outcome: inactive

For Ifnar1 (GeneID 15975) [SID152292666], how do the results read?
combined z-score class: no change with or without drug; viability z-score with doxorubicin: -0.45; viability z-score without drug: -0.84; outcome: inactive

How did the screen score Dnaja3 (GeneID 83945) [SID152299462]?
combined z-score class: no change with or without drug; viability z-score with doxorubicin: -0.79; viability z-score without drug: 0.51; outcome: inactive

With Mybl1 (GeneID 17864) [SID152296867], what does the deposit list?
combined z-score class: no change with or without drug; viability z-score with doxorubicin: 1.01; viability z-score without drug: 1.18; outcome: inactive

With Or1e29 (GeneID 259011) [SID152302034], what was measured?
combined z-score class: no change with or without drug; viability z-score with doxorubicin: -0.45; viability z-score without drug: 0.17; outcome: inactive

Which result is listed for Ly96 (GeneID 17087) [SID152265237]?
combined z-score class: no change with or without drug; viability z-score with doxorubicin: 0.67; viability z-score without drug: -0.84; outcome: inactive

What did the screen give for Golga1 (GeneID 76899) [SID152317992]?
combined z-score class: no change with or without drug; viability z-score with doxorubicin: -0.67; viability z-score without drug: -0.17; outcome: inactive

Which result is listed for Slc60a1 (GeneID 213006) [SID152266824]?
combined z-score class: no change with or without drug; viability z-score with doxorubicin: -0.67; viability z-score without drug: -0.17; outcome: inactive

For Isl2 (GeneID 104360) [SID152315733], what does the deposit list?
combined z-score class: no change with or without drug; viability z-score with doxorubicin: 1.12; viability z-score without drug: 1.18; outcome: inactive

What is on record for 1810009J06Rik (GeneID 73626) [SID152302607]?
combined z-score class: low cell count with doxorubicin only; viability z-score with doxorubicin: -2.7; viability z-score without drug: -0.84; outcome: active

How did the screen score Cadm2 (GeneID 239857) [SID152304969]?
combined z-score class: no change with or without drug; viability z-score with doxorubicin: 0; viability z-score without drug: 1.85; outcome: inactive

For C1d (GeneID 57316) [SID152316936], what does the deposit list?
combined z-score class: no change with or without drug; viability z-score with doxorubicin: -1.35; viability z-score without drug: 0.51; outcome: inactive

For Cebpg (GeneID 12611) [SID152320809], how do the results read?
combined z-score class: no change with or without drug; viability z-score with doxorubicin: 0.22; viability z-score without drug: 1.18; outcome: inactive

Which result is listed for Bckdhb (GeneID 12040) [SID152341506]?
combined z-score class: no change with or without drug; viability z-score with doxorubicin: -0.22; viability z-score without drug: -0.51; outcome: inactive

What did the screen give for Polr2b (GeneID 231329) [SID152275887]?
combined z-score class: low cell count with doxorubicin only; viability z-score with doxorubicin: -2.7; viability z-score without drug: -0.84; outcome: active

What did the screen give for Epha5 (GeneID 13839) [SID152269285]?
combined z-score class: no change with or without drug; viability z-score with doxorubicin: -0.9; viability z-score without drug: -0.17; outcome: inactive

How did the screen score Tbl1x (GeneID 21372) [SID152321187]?
combined z-score class: no change with or without drug; viability z-score with doxorubicin: 0; viability z-score without drug: 0.51; outcome: inactive

With Hcst (GeneID 23900) [SID152301149], what was measured?
combined z-score class: no change with or without drug; viability z-score with doxorubicin: 0.45; viability z-score without drug: -1.52; outcome: inactive

What did the screen give for Tspyl3 (GeneID 241732) [SID152329583]?
combined z-score class: no change with or without drug; viability z-score with doxorubicin: 0.67; viability z-score without drug: 0.51; outcome: inactive

For Adcy3 (GeneID 104111) [SID152274699], what does the deposit list?
combined z-score class: no change with or without drug; viability z-score with doxorubicin: 0.9; viability z-score without drug: 0.34; outcome: inactive

What is on record for Ttyh3 (GeneID 78339) [SID152321846]?
combined z-score class: no change with or without drug; viability z-score with doxorubicin: -1.12; viability z-score without drug: -1.52; outcome: inactive

For Mrpl22 (GeneID 216767) [SID152341671], what does the deposit list?
combined z-score class: no change with or without drug; viability z-score with doxorubicin: 0.79; viability z-score without drug: 0.67; outcome: inactive

For Ehd2 (GeneID 259300) [SID152337311], how do the results read?
combined z-score class: low cell count with doxorubicin only; viability z-score with doxorubicin: -2.7; viability z-score without drug: 0.67; outcome: active

With Sebox (GeneID 18292) [SID152331262], what does the deposit list?
combined z-score class: high cell count without drug only; viability z-score with doxorubicin: 1.91; viability z-score without drug: 2.53; outcome: inactive

How did the screen score Tyr (GeneID 22173) [SID152326538]?
combined z-score class: no change with or without drug; viability z-score with doxorubicin: 0.67; viability z-score without drug: 1.69; outcome: inactive

Which result is listed for Or5t18 (GeneID 257913) [SID152316881]?
combined z-score class: no change with or without drug; viability z-score with doxorubicin: -0.67; viability z-score without drug: -0.67; outcome: inactive
